According to PubChem BioAssay AID493014 (National Center for Advancing Translational Sciences (NCATS), 2011):
Among all 340,000 compounds or so, about 170 (0.05%) were called active. Inconclusive results, whose numbers are uncertain, are shown with a selection of clear calls. The call rests on the fitted dose curve; in most records, active means well fitted inhibition curve with a large enough effect in the signal ratio, with a control signal flat (not every such curve was filed as active); inconclusive means small, poorly fitted or top-dose-only effect, or effect the other way, or a change in a side signal; inactive means flat fitted curve, though single readings scatter; the % refers to the signal ratio. A potency beside an inconclusive call is a rough fit, not a confirmed value.

Assay: qHTS Assay to Find Inhibitors of Chronic Active B-Cell Receptor Signaling;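 on activity change, negative = inhibition: plate controls were basal doxycycline-induced cells for no effect and cells given 10 µM MG132 for full effect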
Conditions: ABC-DLBCL IkBa-CBG/CBR reporter, luminescence ratio (green luciferase fused to IkBa over red control in TMD8 lymphoma cells), 4 h; activity change, negative = inhibition: at 46.1 µM (top of the series)
In short: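 TMD8 ABC-DLBCL cells carrying doxycycline-inducible green luciferase fused to IkappaBalpha plus unfused red luciferase were exposed to compounds (up to 46 uM) for 4 hrs at 37C. Activity came from the overlap-corrected green/red luminescence ratio.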
Potency means the concentration at half of the fitted maximal effect.

Question: With `COc1ccc(NC(=O)CC2C(=O)N(c3ccc(F)cc3)C(=S)N2NC(=O)c2ccc(Cl)cc2)cc1` (stereo not given) as the molecule, how does the activity change, negative = inhibition read?
Answer: Its activity change, negative = inhibition is inconclusive: -14.3%.

Question: For `O=C(CN1CCN(S(=O)(=O)c2ccccc2)CC1)Nc1ccccc1C(=O)NC1CC1`, which activity change, negative = inhibition is on record?
Answer: The activity change, negative = inhibition was inconclusive: 1.75%.

Question: With `Cc1cc(=O)oc2c3c4c(cc12)OCCN4CCC3` as the molecule, how does the Potency read?
Answer: Its Potency is inconclusive: 4.11 µM [falling, partial curve].

Question: Which Potency does the source give for `CC(C)N1CCc2c(sc(NC(=O)c3ccc(S(=O)(=O)N4CCc5ccccc54)cc3)c2C(N)=O)C1` here?
Answer: The Potency was inconclusive: 35.5 µM [falling, single point].

Question: With `N#Cc1c(N)n(Cc2ccccc2)c(=O)c2cc([N+](=O)[O-])ccc12` as the molecule, how does the activity change, negative = inhibition read?
Answer: Its activity change, negative = inhibition is inconclusive: 18.1%.

Question: Which “activity change, negative = inhibition” value does the source give for `CCOC(=O)Cc1csc(NC(=O)Cc2ccc(Cl)cc2)n1` here?
Answer: Its value is inactive: -0.455%.

Question: For `O=C(O)CCn1nnc(-c2ccccc2)n1`, which Potency is on record?
Answer: Its Potency is inconclusive: 2.82 µM [rising, full curve, poor fit].

Question: Which activity change, negative = inhibition does the source give for `COc1ccccc1N1CCN(CC(O)COc2c(OC)cccc2OC)CC1` (stereo not given) here?
Answer: The activity change, negative = inhibition was inconclusive: 9.16%.

Question: For `Cc1ccc(/C=C/C(=O)N2CCN(S(=O)(=O)c3ccc(C)c(C)c3)CC2)o1`, which “activity change, negative = inhibition” value is on record?
Answer: The value was inactive: 4.24%.

Question: With `O=C1CCCc2cc(S(=O)(=O)N3CCC(C(=O)NCc4ccccc4)CC3)ccc2N1` as the molecule, how does the “activity change, negative = inhibition” value read?
Answer: Its value is inactive: 2.35%.

Question: With `Cc1ccccc1NC(=O)C(=O)NCCc1c[nH]c2ccccc12` as the molecule, how does the Potency read?
Answer: The Potency was inconclusive: 17.8 µM [falling, single point].

Question: For `COc1ccc(C)cc1-n1nnnc1SCc1cn2ccsc2n1`, which “activity change, negative = inhibition” value is on record?
Answer: The value was inactive: -0.22%.

Question: Which activity change, negative = inhibition does the source give for `Cc1cc(Nc2ccccc2)c2c([N+](=O)[O-])c(C)cc(C)c2n1` here?
Answer: Its activity change, negative = inhibition is inconclusive: 6.82%.

Question: Which “activity change, negative = inhibition” value does the source give for `OCC(O)/C=N/Nc1nc(N2CCCCC2)nc(N2CCCCC2)n1` (stereo not given) here?
Answer: Its value is inactive: -4.34%.

Question: For `COC(=O)[C@@]12CCCCN1[C@H](c1ccc(-c3cccc(Cl)c3)cc1)[C@H]1C(=O)N(C)C(=O)[C@H]12`, which “activity change, negative = inhibition” value is on record?
Answer: Its value is inactive: -0.303%.

Question: With `FC(F)(F)c1cccc(Oc2nc(-c3ccccc3)nnc2C(F)(F)F)c1` as the molecule, how does the Potency read?
Answer: Its Potency is inconclusive: 28.2 µM [falling, partial curve].

Question: For `Cc1cc(C)nc(NC(=O)c2c(Cl)cccc2Cl)n1`, which Potency is on record?
Answer: The Potency was inconclusive: 2.82 µM [falling, full curve].

Question: Which “activity change, negative = inhibition” value does the source give for `CCOc1ccc(NS(=O)(=O)c2ccc(C(=O)NC3CCC(O)CC3)cc2)cc1` (stereo not given) here?
Answer: Its value is inactive: 2.06%.

Question: With `O=[N+]([O-])c1cccc(C2=NCCS2)c1` as the molecule, how does the activity change, negative = inhibition read?
Answer: The activity change, negative = inhibition was inconclusive: 3.5%.

Question: With `Cc1cc(C)cc(N=C2NC(=O)/C(=C/c3cccs3)S2)c1` as the molecule, how does the Potency read?
Answer: The Potency was inconclusive: 23.1 µM [falling, partial curve].

Question: Which activity change, negative = inhibition does the source give for `CCc1nc(C)c(-c2ccccc2)c(=O)[nH]1` here?
Answer: Its activity change, negative = inhibition is inconclusive: -25.2%.

Question: Which activity change, negative = inhibition does the source give for `O=C(Nc1cccc(S(=O)(=O)N2CCOCC2)c1)c1cn(-c2ccccc2)nc1-c1ccc(F)cc1` here?
Answer: Its activity change, negative = inhibition is inconclusive: 1.79%.

Question: For `CCN(CC)c1ccc(S(=O)(=O)N2CCOCC2)cc1NC(=O)CSc1nncs1`, which activity change, negative = inhibition is on record?
Answer: Its activity change, negative = inhibition is inconclusive: 9.62%.

Question: With `CCn1cc(C(=O)OCC(=O)Nc2ccccc2OC(F)F)c(=O)c2ccc(C)nc21` as the molecule, how does the “activity change, negative = inhibition” value read?
Answer: The value was inactive: 2.91%.

Question: For `COc1ccc2[nH]c(=O)c(-c3nnn(-c4ccccc4)n3)cc2c1`, which “activity change, negative = inhibition” value is on record?
Answer: The value was inactive: -14.8%.

Question: With `Brc1ccc(CN2CC[C@H]3C=CCc4cccc(c43)C2)cc1` as the molecule, how does the “activity change, negative = inhibition” value read?
Answer: Its value is inactive: 1.81%.

Question: With `Cc1cc(C)c(O)c(-c2cc(C(=O)Nc3cccnc3)[nH]n2)c1` as the molecule, how does the Potency read?
Answer: The Potency was inconclusive: 35.5 µM [rising, partial curve].

Question: For `CSc1nnc(N2C(=O)C(O)=C(C(=O)c3ccco3)C2c2ccccc2)s1` (stereo not given), which “activity change, negative = inhibition” value is on record?
Answer: The value was inactive: 11.7%.

Question: Which activity change, negative = inhibition does the source give for `Cc1nc2scc(C)n2c(=O)c1S(=O)(=O)N1CCN(c2cccc(C(F)(F)F)c2)CC1` here?
Answer: Its activity change, negative = inhibition is inconclusive: 16.3%.

Question: For `N#Cc1c2n(c3c(=O)n(CC(=O)c4ccc(Br)cc4)cnc13)CCCC2`, which “activity change, negative = inhibition” value is on record?
Answer: The value was inactive: 1.37%.

Question: Which activity change, negative = inhibition does the source give for `CCCCNC(=O)c1ccccc1NC(=O)c1ccccc1N(C)S(C)(=O)=O` here?
Answer: The activity change, negative = inhibition was inconclusive: -0.458%.

Question: For `CCOC(=O)CC(=O)CSc1ncnc2c1nnn2-c1ccc(F)cc1`, which Potency is on record?
Answer: The Potency was inconclusive: 35.5 µM [falling, single point].

Question: Which activity change, negative = inhibition does the source give for `CCOC(=O)c1c(NC(=O)CSc2nnc(Cc3ccccc3)o2)sc(C)c1C` here?
Answer: The activity change, negative = inhibition was inconclusive: 0.0624%.

Question: For `Cc1cccc(NC(=O)CSc2nc3[nH]ncc3c(=O)[nH]2)c1C`, which activity change, negative = inhibition is on record?
Answer: Its activity change, negative = inhibition is inconclusive: 11.3%.

Question: With `O=C1Nc2ccccc2S/C1=C\C(=O)N1CCCC1` as the molecule, how does the Potency read?
Answer: Its Potency is inconclusive: 35.5 µM [falling, single point].

Question: For `O=C(NCCOc1ccccc1F)c1cc(F)c(F)cc1Cl`, which activity change, negative = inhibition is on record?
Answer: Its activity change, negative = inhibition is inconclusive: 11%.

Question: For `OCCCNc1cc(-c2ccccc2)nc2cc(-c3ccc(F)cc3)nn12`, which activity change, negative = inhibition is on record?
Answer: The activity change, negative = inhibition was inconclusive: -1.79%.

Question: With `CCOc1cccc(OCCCOc2ccccc2)c1` as the molecule, how does the activity change, negative = inhibition read?
Answer: Its activity change, negative = inhibition is inconclusive: 19.1%.

Question: Which Potency does the source give for `O=[N+]([O-])c1ccc(/C=C/c2ccc3ccccc3n2)cc1` here?
Answer: Its Potency is inconclusive: 35.5 µM [falling, single point].

Question: With `Cc1cc(C)c(S(=O)(=O)N2CCN(C(=O)C3COc4ccccc4O3)CC2)c(C)c1` (stereo not given) as the molecule, how does the activity change, negative = inhibition read?
Answer: Its activity change, negative = inhibition is inconclusive: 3.93%.
